Source: US10456465

Experiments:
Experiment in all cases: epitope mapping with GST-tagged hGal1 fragments
[1] = biological target: GST-F5 (GST-tagged human Gal1 fragment F5)
[2] = biological target: GST-F7 (GST-tagged human Gal1 fragment F7)
[3] = biological target: GST-F6 (GST-tagged human Gal1 fragment F6)

Measured: binding

B1: anti-Gal1 monoclonal antibody 8F4F8G7 (antibody, V domains shown)
VH: EVQLQQSVAEFVRPGASVRLSCTASGFNIKNTYIHWVRQRPEQGLEWIGKIDPANGNTKYVPEFQGKATMTADTSSNTVYLHLSSLTSEDTAIYYCVDGYYGWYFAVWGTGTTVTVSS
VL: QAVVTQESALTTSPGETVTLTCRSSTGAVTTSNYANWVQEKPDHLFTGLIGATNNRAPGVPARFSGSLIGDKAVLTITGAQTEDEAIYFCALWYRNHFIFGSGTKVTVL
binds: all assays above

No constants are given. Whether binding was seen depends on the method and setting. A result given as binding can be weak or reduced; the word gives no strength.
